# Results from patent US12429486B2, “Use of Tenascin-C as an extracellular marker of tumor-derived microparticles” (NX Pharmagen Inc., priority 2013, dated 2025).
# At least one structure is not confirmed: it was looked up by name or label, or the drawing left a doubt.
# Tested on: U87 brain tumor cells
# Test: Western blot of Tenascin-C in microparticles shed from U87 bioreactor cultures exposed to TMZ
# Format: cell-based
smiles,measurement,setting,value
"Cn1nnc2c(C(N)=O)ncn2c1=O [TMZ, temozolomide]",Ten-C abundance in U87-derived microparticles after exposure to TMZ,"Flask A (SBI-EFM, nutrient-rich), 0, 100 and 300 μM TMZ, 2, 4, 6 and 24 h, FIG. 1B",minimally impacted
same,Tenascin-C abundance in microparticles shed from U87 cells after TMZ application,"Flask B (EMEM, nutrient-deprived), 100 and 300 μM TMZ, 2, 4, 6 and 24 h, FIG. 2B",not impacted
same,Ten-C abundance in shed tumor-derived microparticles after application of TMZ,"both Flasks A and B, summary statement",not altered
